Results from PubChem BioAssay AID1347075 (National Center for Advancing Translational Sciences (NCATS), 2019).
Hit rate of the full screen: of about 400,000 compounds, about 5,500 (1.4%) were called active. The inconclusive results got no clear call from the source; some entries with a clear call stand among them for comparison. Calls follow the shape of the dose curve; as a rule, active = well fitted cell-killing curve with a large enough effect; inconclusive = small, poorly fitted or top-dose-only effect, or effect the other way; inactive = flat fitted curve, though single readings scatter. Where the call is inconclusive, the potency comes from a doubtful curve fit.

assay: qHTS assay for MDR1-selective chemotherapeutics: Primary screen using the parental adenocarcinoma cell KB-3-1; settings: KB-3-1 viability, CellTiter-Glo ATP luminescence, 72 h; activity change, negative = cytotoxic: at 46.1 µM (top of the series); also: nearly all actives have a fitted effect of over 60% in size
Summary of the method: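 Luminescent ATP read-out (CellTiter-Glo) measures survival of drug-naive KB-3-1 cells after 72 h compound exposure at 37 °C. Titration series was screened from lowest to highest concentration, with DMSO vehicle plates as background controls.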
% is scaled to controls: 0 for no effect and ±100 for the full control effect; potency is read from the fitted curve at half-maximal effect.

| SMILES | Potency | activity change, negative = cytotoxic |
| --- | --- | --- |
| C=CCc1c(C)nc(-c2ccccc2)nc1N/N=C(\C)c1ccc(N)cc1 | inconclusive: 29.1 µM [cytotoxic, single point] | – |
| CCC(c1nnnn1Cc1ccco1)N1CCN(c2cc(Cl)ccc2C)CC1 (centres undefined) | inconclusive: 29.1 µM [cytotoxic, partial curve, poor fit] | – |
| O=C1c2ccccc2-c2cc([N+](=O)[O-])c([N+](=O)[O-])cc21 | inconclusive: 2.91 µM [cytotoxic, full curve] | – |
| CCn1c(SCC(=O)Nc2ccccc2OC)nnc1-c1cnccn1 | inconclusive: 25.9 µM [cytotoxic, single point] | – |
| CCNC(=O)C1(C)CCCN(C(=O)c2ccccc2Br)C1 (centres undefined) | inactive | – |
| O=C(COc1ccc(Cl)cc1Cl)NN=C1c2ccccc2-c2ccccc21 | inconclusive: 16.4 µM [cytotoxic, single point] | – |
| CC(C)Cn1c(CN2CCN(c3cccc(Cl)c3)CC2)nc2c1c(=O)[nH]c(=O)n2C | – | inconclusive: -31.3% [cytotoxic] |
| CCCc1n[nH]c(=S)n1Cc1ccco1 | inactive | – |
| Cc1cc(C)nc(OC(C(=O)O)C(OCCc2ccccc2)(c2ccc(F)cc2)c2ccc(F)cc2)n1 (centres undefined) | inactive | – |
| COc1ccc(N(CC(=O)NCCc2ccc(C)cc2)S(=O)(=O)c2c(C)nn(C)c2C)cc1 | inactive | – |
| COc1cc(OC)cc(-c2nnc(SCC(=O)c3ccc([N+](=O)[O-])cc3)o2)c1 | inconclusive: 8.2 µM [rising, partial curve, poor fit] | – |
| C[C@H]1CN([C@@H](C)CO)C(=O)c2cc(NC(=O)Nc3cccc4ccccc34)ccc2O[C@@H]1CN(C)Cc1ccc(-c2ccccc2)cc1 | inactive | – |
| CNC(=O)c1csc(Cc2c(Cl)sc3ccc(Cl)cc23)n1 | inconclusive: 20.6 µM [cytotoxic, single point] | – |
| COc1ccc(NC(=O)CN2C(=O)C(=O)N(C3CCCC3)C2=O)c(OC)c1 | inactive | – |
| COc1ccc2c(c1)C(=O)N1[C@H]3c4cc(Cl)ccc4OC[C@@H]3[C@H](c3ccccc3)[C@]1(C)C(=O)N2 | inconclusive: 16.4 µM [cytotoxic, single point] | – |
| FC(F)Oc1ccc(NC(=S)NNc2ccnc3cc(Cl)ccc23)cc1 | active: 16.4 µM | – |
| COc1ccc(NC(=O)c2c(C)noc2-c2snnc2C)cc1 | inconclusive: 29.1 µM [cytotoxic, single point] | – |
| CCCc1cc(=O)oc2cc(OCC(=O)NCc3cccs3)ccc12 | inconclusive: 8.2 µM [rising, partial curve, poor fit] | – |
| COc1ccc(CCN2CC(C(=O)N(C)CC(=O)Nc3ccc(Cl)c(C(F)(F)F)c3)CC2=O)cc1OC (centres undefined) | inactive | – |
| COc1ccc(C#Cc2c(C=O)n(C)c3ccccc23)cc1 | inconclusive: 29.1 µM [cytotoxic, single point] | – |
| COc1ccc(C2=CC(c3c(C)nn(-c4ccccc4)c3Cl)n3nnnc3N2)cc1OC (centres undefined) | active: 16.4 µM | – |
| CCOC(=O)COc1ccc(S(=O)(=O)Nc2cccc(SC)c2)cc1 | inactive | – |
| CSc1nnc(NC(=O)c2cc(=O)c3cc(C)c(C)cc3o2)s1 | inactive | – |

Compounds listed so far containing a thiophene ring, fused or not (two):

| SMILES | Potency | activity change, negative = cytotoxic |
| --- | --- | --- |
| CNC(=O)c1csc(Cc2c(Cl)sc3ccc(Cl)cc23)n1 | inconclusive: 20.6 µM [cytotoxic, single point] | – |
| CCCc1cc(=O)oc2cc(OCC(=O)NCc3cccs3)ccc12 | inconclusive: 8.2 µM [rising, partial curve, poor fit] | – |

One compound at a time (already shown).
C=CCc1c(C)nc(-c2ccccc2)nc1N/N=C(\C)c1ccc(N)cc1 in the list: Potency: inconclusive: 29.1 µM [cytotoxic, single point]
CCC(c1nnnn1Cc1ccco1)N1CCN(c2cc(Cl)ccc2C)CC1 (centres undefined) in the list: Potency: inconclusive: 29.1 µM [cytotoxic, partial curve, poor fit]

(listing goes on)

| SMILES | Potency | activity change, negative = cytotoxic |
| --- | --- | --- |
| COc1ccc(CNC(=O)C(CC(C)C)NS(=O)(=O)c2ccc3c(c2)oc(=O)n3C)cc1 (centres undefined) | inconclusive: 7.31 µM [rising, partial curve] | – |
| CC1=CC(C)C2(COC(c3ccc[n+](C)c3)OC2)C(C)C1 (centres undefined) | inconclusive: 18.4 µM [cytotoxic, single point] | – |
| Cc1cccc(C)c1NC(=O)C(=O)NCC(c1ccc2c(c1)OCO2)N1CCN(C)CC1 (centres undefined) | inactive | – |
| CCCCCCN[C@H]1CCC2C3CC=C4C[C@@H](O)CC[C@]4(C)C3CC[C@@]21C (some centres undefined) | inconclusive: 13 µM [cytotoxic, partial curve, poor fit] | – |
| CC(C)(C)n1nnnc1C(c1cccc(C(F)(F)F)c1)N1CCC(O)CC1 (centres undefined) | active: 0.0046 µM | – |
| Cc1ccc(-n2[nH]c(C)c(C=NCc3ccncc3)c2=O)cc1 | inconclusive: 32.6 µM [cytotoxic, single point] | – |
| CCOc1cc(CNc2ccc(N3CCOCC3)cc2)cc(Br)c1OCC | inconclusive: 0.0052 µM [cytotoxic, full curve, poor fit] | – |
| CCOC(=O)c1ccc(NC(=O)Nc2ccc(F)cc2)cc1 | inconclusive: 35.5 µM [cytotoxic, single point] | – |
| Cc1cc2c(cc1C)N(C(=O)CCl)CCN2C(=O)CCl | active: 14.6 µM | – |
| Cc1ccc(-c2nnc(N3CCCCCC3)c3ccccc23)cc1 | active: 23.1 µM | – |
| O=C1c2cc(Cl)ccc2OC2(CCNCC2)C12CC(c1ccccc1)=NO2 (centres undefined) | inactive | – |
| Cc1nc2ccccc2n1CC(O)COCC1CC=CCC1 (centres undefined) | inconclusive: 18.4 µM [cytotoxic, single point] | – |
| CN(C)c1ccc(NC(=O)CSc2nc(C3CC3)nc3ccccc23)cc1 | inconclusive: 16.4 µM [cytotoxic, single point] | – |
| COc1cc(C2CC(=O)c3cnc(N4CCN(Cc5ccccc5)CC4)nc3C2)cc(OC)c1OC (centres undefined) | active: 5.8 µM | – |
| COc1ccc2c(c1)-c1c(sn(-c3ccccc3)c1=S)C(C)(C)N2 | inconclusive: 23.1 µM [cytotoxic, single point] | – |
| CCOC(=O)N1CCN(C(=O)CCc2c(C)nc3c(c(C)nn3-c3ccc(C)c(C)c3)c2C)CC1 | inconclusive: 29.1 µM [cytotoxic, single point] | – |
| Cc1ccc(OCCN2CCN(c3nc(NCc4ccco4)c4ccccc4n3)CC2)cc1 | inconclusive: 23.1 µM [cytotoxic, single point] | – |
| CCCc1nc2c(Cl)cc(C(F)(F)F)cn2c1Cc1ccc(OC)cc1C | inactive | – |
| COc1ccc(Nc2nc(NCc3cccs3)nc3ccsc23)cc1OC | inconclusive: 11.6 µM [cytotoxic, partial curve] | – |
| CCN(C[C@H]1N[C@@](Cc2ccccc2)(C(=O)OC)[C@H]2C(=O)N(Cc3ccccc3)C(=O)[C@@H]12)C(=O)Nc1ccc(Cl)cc1 | inconclusive: 23.1 µM [cytotoxic, single point] | – |
| Cc1nc2ccc(NS(=O)(=O)c3c(F)cc(F)cc3Br)cc2s1 | inconclusive: 23.1 µM [cytotoxic, partial curve, poor fit] | – |
| COc1ccc(/C=N/Nc2nc(=O)[nH]nc2C)cc1OC | inactive | – |
| CCc1nc2ccc(C(=O)NCCCN3CCCC3=O)cn2c1N(C)C(=O)COc1ccccc1 | inactive | – |

| SMILES | Potency | activity change, negative = cytotoxic |
| --- | --- | --- |
| COc1cccc(/C=N/NC(=O)CCNc2n[nH]c(=O)[nH]c2=O)c1OC | inconclusive: 32.6 µM [rising, partial curve, poor fit] | – |
| Cc1ccc2oc(C(=O)N3CCC(c4nc5ccccc5s4)CC3)c(C)c2c1 | inconclusive: 29.1 µM [cytotoxic, single point] | – |
| Cc1ccc(-n2c(C)nc3c(cnn3-c3ccccc3)c2=O)cc1 | inconclusive: 16.4 µM [cytotoxic, partial curve] | – |
| Cc1cc(C[n+]2cc(Cl)ccc2N)c2ncccc2c1 | inconclusive: 29.1 µM [cytotoxic, single point] | – |
| CCC(C)c1ccc(NC(=S)NC2CCN(Cc3ccccc3)CC2)cc1 (centres undefined) | inconclusive: 18.4 µM [cytotoxic, partial curve, poor fit] | – |
| O=C1C=C(c2cc3ccccc3s2)C[C@@H](c2ccc3c(c2)OCO3)C1 | inconclusive: 23.1 µM [cytotoxic, single point] | – |
| COC(=O)[C@H](C)NC(=O)Nc1cccc(C)c1 | inconclusive: 0.206 µM [rising, full curve] | – |
| Cc1cc(C(=O)N/N=C2\CCCc3ccccc32)c(C)o1 | inactive | – |
| COc1ccc(CNC(=O)CN(Cc2ccco2)C(=O)CNS(=O)(=O)c2ccc(C)cc2)cc1 | inconclusive: 3.66 µM [rising, partial curve, poor fit] | – |
| CC(C)(C)C1CCC(C(=O)OCC(=O)N2CCN(C(=O)c3ccco3)CC2)CC1 (centres undefined) | inconclusive: 5.8 µM [rising, partial curve, poor fit] | – |
| COc1ccccc1NC(=O)Cn1c(=O)oc2cc(S(=O)(=O)NCc3ccccc3)ccc21 | inactive | – |
| CC(NC(=O)c1ccc(S(=O)(=O)Nc2ccccc2Cl)cc1)c1ccncc1 (centres undefined) | inconclusive: 0.092 µM [cytotoxic, full curve] | – |
| Cc1cc(/C=N/n2cnnc2)c(C)n1-c1ccc(OCc2ccc(F)cc2)cc1 | inconclusive: 29.1 µM [cytotoxic, single point] | – |
| CCOc1cc(C)nc(N2CCC(C(=O)NCC3CCCO3)CC2)n1 (centres undefined) | inactive | – |
| Cc1cccc(NC(=O)c2ccc3oc(=O)c(S(=O)(=O)c4ccc(F)cc4)cc3c2)c1C | inactive | – |
| Cc1c(Cl)cccc1NC(=S)NCc1ccccc1Cl | inconclusive: 23.1 µM [cytotoxic, single point] | – |
| O=C(O)COc1ccc(/C=C/c2nc(-c3ccccc3O)n[nH]2)cc1 | inactive | – |
| COC(=O)C1=CN(Cc2ccc(OC)c(OC)c2)C=C(C(=O)OC)C1c1ccc(O)cc1 | inactive | – |
| CCCCn1c(SCC(=O)c2ccccc2)nc2sc3c(c2c1=O)CCCC3 | inactive | – |
| COc1ccc(C(C(=O)NC2CCCC2)N(C(=O)c2ccco2)c2ccc(OC)c(OC)c2)cc1 (centres undefined) | inactive | – |
| CC1CCC(NC(=O)c2ccc3c(c2)N(Cc2ccccc2F)C(=O)c2ccccc2S3(=O)=O)CC1 (centres undefined) | inactive | – |
| C=C(C)Cn1c(N2CCN(c3ccc(OC)cc3)CC2)nc2c1c(=O)n(C)c(=O)n2C | inconclusive: 4.11 µM [cytotoxic, full curve] | – |
| COc1ccc(Cl)cc1Cn1c(C)c(C(=O)NCc2cccc(C(F)(F)F)c2)sc1=O | inconclusive: 29.1 µM [cytotoxic, single point] | – |
